Reference: PubChem BioAssay AID652259 (Drosophila RNAi Screening Center, 2013)
In all, the deposit lists about 22,000 reagents; this is an unselected part of those that have a named target and a result. Of all reagents, 233 (1.1%) got an active call. 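Light values are raw, unnormalised plate reads; the ratio scores behind the reporter calls were not deposited.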 The numbers tell different reagents against one gene apart. Names joined by + are all predicted targets of the reagent. No sequences are given here. The record does not give: the amount of reagent, the time to read-out, the dose of the treatment.

- Screen: 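Genome-wide hunt for genes that control Wingless pathway activity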 (primary screen)
- Cells: Drosophila clone 8 imaginal disc epithelial cells
- Knock-down reagent: long dsRNA against Drosophila genes
- Treatment: pathway stimulated by co-transfected Wingless expression plasmid
- Measurement: 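Dual luciferase reads per well after Wingless plasmid stimulation: reporter firefly light and Renilla control light; activity is firefly divided by Renilla, a ratio not deposited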
- Reading the numbers: firefly reporter light: higher = more Wg reporter light, before normalisation; Renilla control light: higher = more transfected or surviving cells
- Call rule: 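a knock-down is a candidate when at least two out of four statistical tests show it departing from its plate mean; one test alone signals a weak candidate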
- Meaning of the calls: active = candidate regulator (raises or lowers reporter); inactive = not a candidate

Idgf1 (GeneID 34978) → firefly reporter light, replicate 1: 9825; Renilla control light, replicate 1: 3012; call: inactive
wrapper (GeneID 37555) → firefly reporter light, replicate 1: 9348; Renilla control light, replicate 1: 1955; call: inactive
lush (GeneID 40136) → firefly reporter light, replicate 1: 15168; Renilla control light, replicate 1: 5168; call: inactive
CG5746 (GeneID 42903) → firefly reporter light, replicate 1: 3159; firefly reporter light, replicate 2: 6507; Renilla control light, replicate 1: 1488; Renilla control light, replicate 2: 2032; call: inactive
Fur1 (GeneID 47220) #1 → firefly reporter light, replicate 1: 5171; Renilla control light, replicate 1: 1111; call: inactive
Fur1 (GeneID 47220) #2 → firefly reporter light, replicate 1: 2624; firefly reporter light, replicate 2: 3648; Renilla control light, replicate 1: 1772; Renilla control light, replicate 2: 641; call: inactive
Rab2 (GeneID 35577) → firefly reporter light, replicate 1: 13945; Renilla control light, replicate 1: 4007; call: inactive
TppII (GeneID 36444) → firefly reporter light, replicate 1: 9328; Renilla control light, replicate 1: 3304; call: inactive
CG42560 + CG42559 → firefly reporter light, replicate 1: 6.24e5; firefly reporter light, replicate 2: 5.38e5; Renilla control light, replicate 1: 1.77e5; Renilla control light, replicate 2: 1.94e5; call: inactive
MED24 (GeneID 38914) → reporter change call, replicate 1: Wg reporter activity lowered; firefly reporter light, replicate 1: 907; firefly reporter light, replicate 2: 4960; Renilla control light, replicate 1: 1557; Renilla control light, replicate 2: 3546; call: inactive
CG14605 (GeneID 40867) → firefly reporter light, replicate 1: 11834; Renilla control light, replicate 1: 3206; call: inactive
CG12880 (GeneID 43328) → firefly reporter light, replicate 1: 1976; firefly reporter light, replicate 2: 8508; Renilla control light, replicate 1: 730; Renilla control light, replicate 2: 1798; call: inactive
Asator (GeneID 43794) → firefly reporter light, replicate 1: 17849; Renilla control light, replicate 1: 13462; call: inactive
CG10254 (GeneID 42793) → firefly reporter light, replicate 1: 2247; firefly reporter light, replicate 2: 4304; Renilla control light, replicate 1: 1430; Renilla control light, replicate 2: 1495; call: inactive
ldbr (GeneID 38900) → firefly reporter light, replicate 1: 5361; Renilla control light, replicate 1: 2218; call: inactive
CG5065 (GeneID 36860) → firefly reporter light, replicate 1: 6064; Renilla control light, replicate 1: 1990; call: inactive
Ir20a (GeneID 33126) → firefly reporter light, replicate 1: 14261; Renilla control light, replicate 1: 9138; call: inactive
RabX5 (GeneID 38209) → firefly reporter light, replicate 1: 6329; Renilla control light, replicate 1: 2825; call: inactive
CG42516 + Pbp49 → firefly reporter light, replicate 1: 5584; Renilla control light, replicate 1: 1451; call: inactive
CG10561 (GeneID 35189) → firefly reporter light, replicate 1: 8416; Renilla control light, replicate 1: 2598; call: inactive
brat (GeneID 35197) → firefly reporter light, replicate 1: 8953; Renilla control light, replicate 1: 2000; call: inactive
COX6CL (GeneID 318868) → firefly reporter light, replicate 1: 23079; Renilla control light, replicate 1: 10100; call: inactive
CG4045 (GeneID 31176) → firefly reporter light, replicate 1: 2299; firefly reporter light, replicate 2: 5303; Renilla control light, replicate 1: 1296; Renilla control light, replicate 2: 2544; call: inactive
CG43312 (GeneID 12798458) → firefly reporter light, replicate 1: 2680; Renilla control light, replicate 1: 1282; call: inactive
vlc (GeneID 46078) → firefly reporter light, replicate 1: 2448; firefly reporter light, replicate 2: 7202; Renilla control light, replicate 1: 836; Renilla control light, replicate 2: 2505; call: inactive
lncRNA:CR43372 (GeneID 12798502) → firefly reporter light, replicate 1: 36043; Renilla control light, replicate 1: 7558; call: inactive
CG34115 (GeneID 4379880) → firefly reporter light, replicate 1: 27447; Renilla control light, replicate 1: 13584; call: inactive
CG13627 (GeneID 42941) → firefly reporter light, replicate 1: 12853; Renilla control light, replicate 1: 12976; call: inactive
CG12609 (GeneID 32862) → firefly reporter light, replicate 1: 20466; Renilla control light, replicate 1: 10809; call: inactive
CG31139 (GeneID 42698) → firefly reporter light, replicate 1: 7.67e5; firefly reporter light, replicate 2: 7.60e5; Renilla control light, replicate 1: 3.07e5; Renilla control light, replicate 2: 3.04e5; call: inactive
janB (GeneID 43568) → firefly reporter light, replicate 1: 9673; Renilla control light, replicate 1: 3272; call: inactive
vrs (GeneID 41537) → firefly reporter light, replicate 1: 19128; Renilla control light, replicate 1: 4086; call: inactive

Part of the list above, set out differently.
ldbr (GeneID 38900)
- firefly reporter light, replicate 1: 5361
- Renilla control light, replicate 1: 2218
- call: inactive

CG5065 (GeneID 36860)
- firefly reporter light, replicate 1: 6064
- Renilla control light, replicate 1: 1990
- call: inactive
